Reference: publication PMC10003010, “A Unique In Vitro Assay to Investigate ABCB4 Transport Function” (International Journal of Molecular Sciences, 2023)

By UniProt entry, the sequences of proteins in these tests, tags left out. Residues count along the entry.
UniProt P21439, 1-1279 isoform P21439-2: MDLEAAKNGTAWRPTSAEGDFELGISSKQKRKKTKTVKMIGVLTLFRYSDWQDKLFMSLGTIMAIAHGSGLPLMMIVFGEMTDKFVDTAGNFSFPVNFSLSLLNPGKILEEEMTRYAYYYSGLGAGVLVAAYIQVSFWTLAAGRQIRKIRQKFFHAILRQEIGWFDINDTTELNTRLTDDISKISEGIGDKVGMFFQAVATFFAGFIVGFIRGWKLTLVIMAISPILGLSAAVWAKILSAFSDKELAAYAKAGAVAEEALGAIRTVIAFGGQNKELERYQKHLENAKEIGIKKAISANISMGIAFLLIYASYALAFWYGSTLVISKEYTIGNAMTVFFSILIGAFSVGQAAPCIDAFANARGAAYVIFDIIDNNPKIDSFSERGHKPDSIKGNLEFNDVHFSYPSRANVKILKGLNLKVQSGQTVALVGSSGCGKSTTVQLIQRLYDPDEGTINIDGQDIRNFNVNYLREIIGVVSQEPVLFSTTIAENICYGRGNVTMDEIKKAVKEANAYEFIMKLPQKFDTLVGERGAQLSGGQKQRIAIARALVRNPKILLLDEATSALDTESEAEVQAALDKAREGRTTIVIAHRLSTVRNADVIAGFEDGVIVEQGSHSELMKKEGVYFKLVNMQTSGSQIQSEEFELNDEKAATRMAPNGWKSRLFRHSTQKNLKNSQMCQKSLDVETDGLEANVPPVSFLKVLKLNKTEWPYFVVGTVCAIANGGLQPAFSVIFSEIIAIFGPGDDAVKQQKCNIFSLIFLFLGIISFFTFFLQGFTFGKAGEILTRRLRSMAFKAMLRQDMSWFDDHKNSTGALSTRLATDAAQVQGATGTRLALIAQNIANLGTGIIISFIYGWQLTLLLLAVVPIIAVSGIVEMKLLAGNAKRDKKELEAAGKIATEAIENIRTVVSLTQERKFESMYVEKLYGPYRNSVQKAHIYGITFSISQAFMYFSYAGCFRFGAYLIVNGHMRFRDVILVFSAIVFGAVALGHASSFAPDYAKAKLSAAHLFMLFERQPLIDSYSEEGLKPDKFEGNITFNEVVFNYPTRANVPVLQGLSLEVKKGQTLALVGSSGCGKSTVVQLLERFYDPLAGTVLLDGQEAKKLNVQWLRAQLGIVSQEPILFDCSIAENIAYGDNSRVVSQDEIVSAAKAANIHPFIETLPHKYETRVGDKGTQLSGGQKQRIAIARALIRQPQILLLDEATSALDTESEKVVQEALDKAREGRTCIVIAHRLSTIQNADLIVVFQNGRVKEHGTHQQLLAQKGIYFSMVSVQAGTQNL
UniProt P08183, whole entry: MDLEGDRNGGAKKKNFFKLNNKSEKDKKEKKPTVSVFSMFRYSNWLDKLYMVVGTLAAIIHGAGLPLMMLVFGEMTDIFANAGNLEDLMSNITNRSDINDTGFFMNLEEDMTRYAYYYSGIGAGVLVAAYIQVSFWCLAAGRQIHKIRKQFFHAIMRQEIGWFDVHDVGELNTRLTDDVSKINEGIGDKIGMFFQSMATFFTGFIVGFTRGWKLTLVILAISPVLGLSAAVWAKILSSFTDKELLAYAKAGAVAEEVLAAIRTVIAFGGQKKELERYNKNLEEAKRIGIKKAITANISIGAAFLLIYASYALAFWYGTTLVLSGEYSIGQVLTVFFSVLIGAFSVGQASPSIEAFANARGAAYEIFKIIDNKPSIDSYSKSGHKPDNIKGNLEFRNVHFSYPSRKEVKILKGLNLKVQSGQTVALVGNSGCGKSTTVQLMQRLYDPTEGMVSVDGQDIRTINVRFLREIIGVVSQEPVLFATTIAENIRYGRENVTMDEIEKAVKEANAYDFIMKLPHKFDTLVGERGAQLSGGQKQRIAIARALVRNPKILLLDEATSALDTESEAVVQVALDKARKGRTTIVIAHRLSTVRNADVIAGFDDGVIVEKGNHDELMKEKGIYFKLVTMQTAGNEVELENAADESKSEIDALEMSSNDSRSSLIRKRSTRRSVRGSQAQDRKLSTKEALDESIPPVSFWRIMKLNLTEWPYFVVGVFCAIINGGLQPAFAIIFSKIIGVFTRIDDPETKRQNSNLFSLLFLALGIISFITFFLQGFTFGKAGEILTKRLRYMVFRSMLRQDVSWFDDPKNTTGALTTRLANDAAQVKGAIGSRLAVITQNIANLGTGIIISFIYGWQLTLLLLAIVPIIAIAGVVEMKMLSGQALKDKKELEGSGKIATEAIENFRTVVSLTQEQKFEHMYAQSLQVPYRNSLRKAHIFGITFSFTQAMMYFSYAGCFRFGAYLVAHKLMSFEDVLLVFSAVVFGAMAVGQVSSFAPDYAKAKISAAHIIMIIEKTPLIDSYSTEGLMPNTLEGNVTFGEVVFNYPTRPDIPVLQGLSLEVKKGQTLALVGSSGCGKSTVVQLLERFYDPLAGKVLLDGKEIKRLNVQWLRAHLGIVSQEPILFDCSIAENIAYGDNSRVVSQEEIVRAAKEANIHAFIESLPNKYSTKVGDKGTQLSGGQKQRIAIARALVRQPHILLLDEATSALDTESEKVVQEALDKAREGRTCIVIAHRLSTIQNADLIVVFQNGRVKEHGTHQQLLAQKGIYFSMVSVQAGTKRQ

Experiments:
[1] = ref FDA Liver Toxicity Knowledge Base (LTKB); cited from earlier work
[2] = target: T1, human ABCB4 (Homo sapiens, UniProt P21439); experiment: Inhibition of ABCB4-mediated digoxin transport, bidirectional assay in Abcb1KO-MDCKII-ABCB4 cells; format: cell-based; conditions: digoxin 1 µM probe
T1 construct: expressed in transfected cells; host or cells: Abcb1KO-MDCKII (canine kidney, Abcb1 knockout), lentiviral transduction, single clone

[3] = target: ABCB1 (Homo sapiens, UniProt P08183); conditions: Y/N; cited from earlier work

Row | SMILES | DILI Concern [1] | Effect on ABCB4-mediated digoxin transport, in words [2] | ABCB1 Interactor [3]
1 | CCCCc1oc2ccccc2c1C(=O)c1cc(I)c(OCCN(CC)CC)c(I)c1 [amiodarone] | Most DILI concern | no effect | –
2 | NS(=O)(=O)c1cc(C(=O)O)c(NCc2ccco2)cc1Cl [furosemide] | – | – | Conflicting information [65]
